Record: PubChem BioAssay AID493246 (Drosophila RNAi Screening Center, 2011)

- Screen: 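Identify essential fly genes by loss of cell viability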 (primary screen)
- Cell system: Drosophila Kc and S2R+ cells
- Reagents: long dsRNA against Drosophila genes
- Measured: 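Cell number per well after knock-down, printed as raw plate values; calls were based on per-plate z-scores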
- Scale: Kc cell number and S2R+ cell number: higher = more cells remaining
- Hit rule: 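Counted as a hit if cell number falls by a z-score of at least 3 within its plate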
The deposit covers about 21,000 reagents; below is a random part of those with a known target gene and a result. In the full data, 429 (2%) are marked active. 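Values are raw and not normalised between plates; calls rest on per-plate z-scores that were not deposited.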 A number with no mark means an inactive call. Names joined by + are all predicted targets of the reagent. No sequences are given here. The record does not give: the amount of reagent, the time to read-out.

no.	gene	DRSC id	Kc cell number, rep 1	Kc cell number, rep 2	S2R+ cell number, rep 1	S2R+ cell number, rep 2
1	CG5561 (GeneID 33321)	DRSC00688	1.72e6	1.73e6	1.09e6	1.19e6
2	Fbp1 (GeneID 39566)	DRSC11166	1.55e6	1.53e6	1.14e6	1.32e6
3	AANATL7 (GeneID 31236)	DRSC18616	1.49e6	1.42e6	9.90e5	9.74e5
4	CG12320 (GeneID 42189)	DRSC14498	1.54e6	1.49e6	1.11e6	1.25e6
5	Lfg (GeneID 36418)	DRSC06853	1.71e6	1.79e6	1.41e6	1.63e6
6	Cpr47Eg (GeneID 36196)	DRSC07330	1.54e6	1.58e6	1.20e6	1.24e6
7	Tim17b1 (GeneID 40635)	DRSC12179	1.59e6	1.74e6	1.20e6	1.32e6
8	CG1986 (GeneID 31925)	DRSC18197	1.46e6	1.43e6	1.01e6	1.11e6
9	CG31551 (GeneID 318795)	DRSC12159	1.32e6	1.34e6	1.10e6	1.22e6
10	CG7600 (GeneID 39267)	DRSC09681	1.48e6	1.54e6	1.18e6	1.09e6
11	CG11368 (GeneID 50397)	DRSC17778	1.56e6	1.59e6	1.15e6	1.25e6
12	Cortactin (GeneID 42491)	DRSC16612	1.53e6	1.63e6	1.24e6	1.32e6
13	Ras64B (GeneID 38494)	DRSC08689	1.40e6	1.26e6	1.12e6	1.34e6
14	CG13836 (retired record) (GeneID 42741)	DRSC14686	1.46e6	1.48e6	1.01e6	1.08e6
15	mge (GeneID 38459)	DRSC08721	1.68e6	1.66e6	9.21e5	1.15e6
16	CG31373 (GeneID 318700)	DRSC16052	1.44e6	1.42e6	1.25e6	1.33e6
17	CG8531 (GeneID 36584)	DRSC07209	1.40e6	1.43e6	1.13e6	1.24e6
18	CG15118 (GeneID 37199)	DRSC06540	1.47e6	1.55e6	1.05e6	1.01e6
19	Ugt36A1 (GeneID 44058)	DRSC00748	1.69e6	1.72e6	1.27e6	1.45e6
20	unc-45 (GeneID 44910)	DRSC15449	1.29e6	1.34e6	1.35e6	1.43e6
21	CG7675 (GeneID 42211)	DRSC16280	1.59e6	1.66e6	1.29e6	1.37e6
22	CG13983 (GeneID 33875)	DRSC02315	1.67e6	1.63e6	1.26e6	1.47e6
23	CG14785 (GeneID 31094)	DRSC18604	4.44e5		8.42e5	
24	polybromo (GeneID 42954)	DRSC14307	1.49e6	1.60e6	1.21e6	1.27e6
25	cora (GeneID 37205)	DRSC07597	1.73e6	1.67e6	1.23e6	1.29e6
26	shop (GeneID 32878)	DRSC20030	1.56e6	1.56e6	1.09e6	1.27e6
27	ND-B14.7 (GeneID 37385)	DRSC04544	1.52e6	1.60e6	9.24e5	2.77e5
28	sd (GeneID 32536)	DRSC20370	1.57e6	1.58e6	1.13e6	1.23e6
29	CG17652 (GeneID 33353)	DRSC00511	1.64e6	1.61e6	1.09e6	1.24e6
30	Hen1 (GeneID 36301)	DRSC06139	1.43e6	1.52e6	1.07e6	1.20e6
31	Hen1 (GeneID 36301)	DRSC06140	1.70e6	1.63e6	1.39e6	1.55e6
32	Efr (GeneID 31553)	DRSC18322	1.54e6	1.57e6	1.13e6	1.22e6
33	NimB5 (GeneID 34815)	DRSC01885	1.59e6	1.67e6	1.21e6	1.39e6
34	CG42326 (GeneID 35838)	DRSC06483	1.60e6	1.74e6	1.38e6	1.52e6
35	CG42326 (GeneID 35838)	DRSC06484	1.53e6	1.68e6	1.27e6	1.46e6
36	Tg (GeneID 34093)	DRSC03047	1.57e6	1.67e6	1.18e6	1.40e6
37	CG18094 (GeneID 35232)	DRSC02655	1.55e6	1.67e6	1.34e6	4.06e5
38	Dus2 (GeneID 32377)	DRSC19591	5.40e5		7.42e5	
39	CG34251 (GeneID 5740860)	DRSC09498	1.43e6	1.56e6	1.11e6	1.25e6
40	CG34251 (GeneID 5740860)	DRSC09500	1.65e6	1.78e6	1.16e6	1.38e6
41	CG10559 (GeneID 43063)	DRSC14255	1.84e6	1.86e6	1.12e6	1.13e6
42	CG11811 (GeneID 39213)	DRSC09862	1.23e6	1.40e6	1.19e6	1.28e6
43	Cmtr1 (GeneID 31355)	DRSC18400	1.65e6	1.65e6	1.03e6	1.14e6
44	Pepck2 (GeneID 37130)	DRSC06013	1.90e6	1.95e6	1.25e6	1.40e6
45	Tmem43 (GeneID 38881)	DRSC10964	1.71e6	1.84e6	1.13e6	1.19e6
46	QC (GeneID 38663)	DRSC09736	1.42e6	1.44e6	1.16e6	1.15e6
47	fz2 (GeneID 40090)	DRSC09595	1.49e6	1.57e6	1.17e6	1.25e6
48	fz2 (GeneID 40090)	DRSC10087	1.45e6	1.53e6	1.05e6	1.19e6
49	fz2 (GeneID 40090)	DRSC11349	1.55e6	1.64e6	1.29e6	1.39e6
50	CG4701 (GeneID 34858)	DRSC01952	1.49e6	1.57e6	1.16e6	1.26e6
51	CG42306 + Gint3	DRSC06934	1.28e6	1.31e6	1.08e6	1.09e6
52	arx (GeneID 40061)	DRSC10386	1.55e6	1.56e6	1.31e6	1.31e6
53	CG11562 (GeneID 33200)	DRSC00316	1.61e6	1.58e6	1.19e6	1.35e6
54	Gnpnat (GeneID 43504)	DRSC15405	5.61e5		8.45e5	
55	defl (GeneID 39141)	DRSC10300	1.12e6	1.51e6	1.16e6	9.65e5
56	Slik (GeneID 37893)	DRSC04471	1.33e6	1.38e6	1.11e6	1.12e6
57	Gr59f (GeneID 37726)	DRSC04499	1.57e6	1.63e6	1.33e6	1.43e6
58	Unc-115b + p24-2 + Unc-115a	DRSC16502	1.65e6	1.59e6	1.27e6	1.38e6
59	Ube4A (GeneID 33932)	DRSC02004	1.29e6	1.35e6	5.59e5	6.16e5

Records above whose gene name starts with T or t:
gene	DRSC id	Kc cell number, rep 1	Kc cell number, rep 2	S2R+ cell number, rep 1	S2R+ cell number, rep 2
Tim17b1 (GeneID 40635)	DRSC12179	1.59e6	1.74e6	1.20e6	1.32e6
Tg (GeneID 34093)	DRSC03047	1.57e6	1.67e6	1.18e6	1.40e6
Tmem43 (GeneID 38881)	DRSC10964	1.71e6	1.84e6	1.13e6	1.19e6
